Results reported in paper PMC9238401 (Applied and Environmental Microbiology, 2022).

Experiment: general procedure: Fmoc solid-phase peptide synthesis; PAC-ChemMatrix; DIPCDI/Oxyma
Settings: whole synthesis, 220 nm, scale of the general procedure 200 mg resin, 0.66 mmol/g

With KKLFKKILKKL-RINSAKDDAAGLQIA-OH as the substance, how does the “final HPLC purity” value read?
Its value is >99%.

For KKLFKKILKKL-VWNQPVRGFKVYE-OH, which “final HPLC purity” value is on record?
Its value is >99%.

With KKLFKKILKYL-RINSAKDDAAGLQIA-OH as the substance, how does the “final HPLC purity” value read?
Its value is >99%.

Which “final HPLC purity” value does the source give for KKLFKKILKYL-VWNQPVRGFKVYE-OH here?
Its value is >99%.

With KKLfKKILKYL-VWNQPVRGFKVYE-OH as the substance, how does the “final HPLC purity” value read?
The value was >99%.

With KKVVFWVKFK-RINSAKDDAAGLQIA-OH as the substance, how does the “final HPLC purity” value read?
The value was >99%.

Which “final HPLC purity” value does the source give for KKVVFWVKFK-VWNQPVRGFKVYE-OH here?
Its value is >99%.

Experiment: general procedure: Fmoc solid-phase peptide synthesis; Fmoc-Rink-ChemMatrix; DIPCDI/Oxyma
Settings: whole synthesis, 220 nm, scale of the general procedure 200 mg resin, 0.66 mmol/g

Which “final HPLC purity” value does the source give for FKLFKKILKVL-KKLFKKILKKL-NH2 here?
Its value is >99%.

For FKLFKKILKVL-KKLFKKILKYL-NH2, which “final HPLC purity” value is on record?
The value was >99%.

Which “final HPLC purity” value does the source give for FKLFKKILKVL-KKLfKKILKYL-NH2 here?
Its value is >99%.

For FKLFKKILKVL-KKVVFWVKFK-NH2, which “final HPLC purity” value is on record?
Its value is >99%.

Which “final HPLC purity” value does the source give for KKLFKKILKKL-FKLFKKILKVL-NH2 here?
Its value is >99%.

For KKLFKKILKYL-FKLFKKILKVL-NH2, which “final HPLC purity” value is on record?
The value was >99%.

For KKLfKKILKYL-FKLFKKILKVL-NH2, which “final HPLC purity” value is on record?
The value was >99%.

With KKVVFWVKFK-FKLFKKILKVL-NH2 as the substance, how does the “final HPLC purity” value read?
The value was >99%.

With RINSAKDDAAGLQIA-KKLFKKILKYL-NH2 as the substance, how does the “final HPLC purity” value read?
The value was >99%.

Which “final HPLC purity” value does the source give for RINSAKDDAAGLQIA-KKVVFWVKFK-NH2 here?
The value was >99%.

Which “final HPLC purity” value does the source give for VWNQPVRGFKVYE-KKLFKKILKKL-NH2 here?
The value was >99%.

With VWNQPVRGFKVYE-KKLFKKILKYL-NH2 as the substance, how does the “final HPLC purity” value read?
The value was >99%.

With VWNQPVRGFKVYE-KKLfKKILKYL-NH2 as the substance, how does the “final HPLC purity” value read?
Its value is >99%.

For VWNQPVRGFKVYE-KKVVFWVKFK-NH2, which “final HPLC purity” value is on record?
The value was >99%.

With YGIHTH-KKVVFWVKFK-NH2 as the substance, how does the “final HPLC purity” value read?
The value was >99%.

Experiment: general procedure: Fmoc solid-phase peptide synthesis; ChemMatrix resin (0.69 mmol/g) with Fmoc-Rink-amide linker or PAC linker; DIPCDI/Oxyma
Settings: whole synthesis, 220 nm, scale of the general procedure 200 mg resin, 0.66 mmol/g

Which “final HPLC purity” value does the source give for “Ac-KKLFKKIK(COC3H7)KYL-RINSAKDDAAGLQIA -OH” here?
The value was 96%.

For “Ac-KKLfKKILKK(COC 3H7)L-RINSAKDDAAGLQIA-OH”, which “final HPLC purity” value is on record?
The value was >99%.

Which “final HPLC purity” value does the source give for Ac-KKLfKKILKK(COC 3H7)L-YGIHTH-NH2 here?
Its value is >99%.

Which “final HPLC purity” value does the source give for “Ac-RINSAKDDAAGLQIA -KKLFKKIK(COC 3H7)KYL-NH2” here?
The value was 96%.

For “Ac-RINSAKDDAAGLQIA -KKLfKKILKK(COC3H7)L-NH2”, which “final HPLC purity” value is on record?
The value was 97%.

With Ac-YGIHTH-KKLfKKILKK(COC 3H7)L-NH2 as the substance, how does the “final HPLC purity” value read?
Its value is >99%.

Which “final HPLC purity” value does the source give for KKVVFWVKFK-YGIHTH-NH2 here?
Its value is >99%.

Which “final HPLC purity” value does the source give for RINSAKDDAAGLQIA-KKLFKKILKKL-NH2 here?
The value was >99%.
